Laboratory results published in PubChem BioAssay AID1508600 (Functional Genomics Laboratory (NCATS/FGL), 2020).
About 3,700 (7%) of roughly 53,000 sequences were called active.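 The calls were made as follows: active = gene knockdowns whose robust z-score for IL-1 alpha signal is at least 2 or at most -2, so actives lie on both sides; inactive = the rest.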 The list shows a part of the results.

assay: Components of the Cytosolic LPS Sensing Pathway: Gene Identification via Genome-wide siRNA Screen; conditions: RAW264.7 macrophages, IL-1a HTRF, actives lie on both sides, screened at 100 nM (by protocol), cells primed 5 h with Pam3CSK4 first;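 also: robust z of the log signal after scaling to non-targeting control siRNA wells of the plate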
How it was run: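 Three distinct siRNAs per gene were tested singly at 100 nM in RAW264.7 macrophages. Following Pam3CSK4 priming and 24 hour LipidA transfection, IL-1a secretion was read by HTRF.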

Sequence	z-score
GUGAAUGGUCAGAAGUUUGTT against Elk4	inactive: 1.43
GCUGUUCUGCCUCUAAGACTT against Zfp597	inactive: 0.925
CCAGAAUUGGCAGAUUUGCTT against Mtor	inactive: -0.22
GCUUUAGAUACGUGAUUAGTT against Desi2	inactive: -0.125
GGAGAUCAGCUGUCUAAUGTT against Tmem237	inactive: -0.207
CCUGAUCCCAUGUAAAACATT against Sspn	inactive: -0.35
CCUAGUAAUGUCCAUUGUGTT against Endod1	inactive: 0.0364
GCAGCACUGGAAUAUUUGGTT against Prxl2a	inactive: -0.952
GGAUCGAAUCUUUACCUAUTT against Col9a1	inactive: 0.932
GGAUCAGACAUGCAAGAGGTT against Xlr5c	inactive: -1.81
GGAUGAGUACAGCAUUCUGTT against Rhebl1	inactive: -0.733
GGAAGAUGAACAAACGACATT against Sec11c	inactive: -0.0219
GGAAACAUCUGGACUCCACTT against Hsd17b14	inactive: -1.45
GGACUUCACAUUCUUGAGATT against A130010J15Rik	inactive: -0.232
GGUGUUUACACAGAGAAUGTT against Gpr143	inactive: -0.162
GCAUCGUUGACUAAAGUGGTT against Grm3	inactive: -0.356
GGGCAACUAUUGAUGAGGUTT against Acap3	inactive: -0.138
GGCCAGUUGAAUGUGUCUGTT against Acss1	inactive: -0.0382
GGUCUCAAUAAACUUCAGGTT against Mfap4	inactive: 0.926
CGCCACUAUCCUAACUUGCTT against Olfr963	inactive: 0.215
CCUACAACAGAUGUGCAGCTT against Fam222b	inactive: -1.82
GGAUAACAGUAAAUGGCUUTT against Zkscan8	inactive: 0.152
CCAGUAAAACCUCUAACAATT against Kremen1	inactive: -0.521

Sequence	z-score
GGAGCAGGUUGGCUAUUUGTT against Ppp6c	inactive: 0.164
CCUUGCUCUUUCCAGCUCUTT against Olfr704	inactive: 0.332
GGUUAGACUCAGCUUCAUGTT against Tex19.2	inactive: 1.54
GGCACAUGCCCUUUUCUACTT against Cog1	inactive: -1.24
CCGGACUCUAGAGGACUUUTT against Lalba	inactive: 0.0285
CAGAUGCAAGAAGAGAGAGTT against E130006D01Rik	inactive: -1.11
GCAAUGACAUCUUUUAGACTT against Gpr12	inactive: 0.123
CCAUAAUCUCUUUUCACUGTT against Fzd7	inactive: -0.375
GGACUCAAGACACCAGUUGTT against Rufy3	inactive: -0.318
GGAAAGGAGAGGUGUGUUCTT against Asb7	inactive: 0.431
CGGAUUCCGCUGGAACUAUTT against Enpp7	inactive: -0.194
CCAAAUGGGAAGAGAUUGUTT against Xkr4	inactive: -0.452
CGCUUCUAUAAACCUGACUTT against Mrpl3	inactive: 0.488
GCUAUGACCGGAGGUUCUATT against Morn5	inactive: 0.555
GGAGUACGUUGACAUCAUCTT against Timp4	inactive: 0.802
GGAGCAUUCUUUGGUGAAGTT against 1700024B05Rik	inactive: -0.936
GGAUAAUACAGAACAAAAGTT against Pstk	inactive: -0.498
GCGUGAACCGUUUGAUGAGTT against 9030612E09Rik	inactive: 1.04
GGUGAAGUACUUUUCGUUCTT against Slc1a3	inactive: 1.21
GGCUGUGACUCUGGAUUUGTT against Bdh1	inactive: -0.985
GGUCCUGGAGGCUUAUAAUTT against Sema3a	inactive: -0.151
GGCUCCAAACAGAAUCUUGTT against Pmch	inactive: 0.768
GCUACUCUCUAUUGGUUUUTT against Gpr45	active: 2.45

Sequence	z-score
GCGGUGUCCUAAAAUGCACTT against Nkx1-2	inactive: 0.0348
GGCCCAGCAAAAAAAGAAGTT against Usp46	inactive: -0.397
GGUUCUUAACCUCAGCAGUTT against Omg	inactive: -0.541
GGUAGCAGUUGGACCUAAUTT against Setd7	inactive: 0.157
GGAAGUCUACAAGUGGCCATT against Nr1d1	inactive: -0.467
GGGUUAGCAACUUCAAAUATT against Zmynd19	inactive: 0.996
GGAGCAUUAUAUCAAUCCUTT against Zfp111	active: 2.16
GGAGUUGGACCUGUCAGAGTT against Daxx	inactive: -1.25
GGCAGUAAAUAGUAAGAAATT against Ccr9	inactive: -0.716
GGAAAACUGCUUUGAGCUGTT against Thap7	active: 2.72
GGAACCAGAGAAAGAAGAUTT against Nfkbie	inactive: -0.566
GGAUCACAGCAGAAGAAAUTT against Tmem144	active: -2.95
GGCUCUGGUCCAAGAAAUGTT against C4b	inactive: -0.176
GGAAGCAUUUCUUAAUUCATT against Ncoa4	inactive: 1.57
GGAAGAGAAAUUCUUCCUCTT against Alg5	inactive: 0.0359
GCGGUUCACUAUCUCCCUATT against Khsrp	inactive: -0.0936
GGAGAUCGACCACUUCUUCTT against Olfr1395	inactive: -1.52
CCGGAACUAUCAAUAAAUGTT against Mlst8	inactive: -1.09
GGCCGUGUGUUUCUGUAACTT against Matk	inactive: 0.626
GCCUAUUCGAAUUUGGGAATT against Ogt	inactive: -0.0977
GCAUUCAAAAUAGCUCUAUTT against Calb1	inactive: 0.663
GGUACAAAAGAAAACUGCUTT against Slbp	inactive: 0.00127

As a short view, part of the list above:
Sequence	z-score
GCGGUGUCCUAAAAUGCACTT against Nkx1-2	inactive: 0.0348
GGCCCAGCAAAAAAAGAAGTT against Usp46	inactive: -0.397
GGUUCUUAACCUCAGCAGUTT against Omg	inactive: -0.541
GGUAGCAGUUGGACCUAAUTT against Setd7	inactive: 0.157
GGAAGUCUACAAGUGGCCATT against Nr1d1	inactive: -0.467
GGGUUAGCAACUUCAAAUATT against Zmynd19	inactive: 0.996
